Reference: the supplement of paper PMC6411743
± gives the standard deviation of the averaged measurements. The list shows a part of the results.

Amino acid sequences for entries named in this document (tags omitted). A change or cut given only in a name is not applied to a line headed by its entry.
UniProt P48059, whole entry: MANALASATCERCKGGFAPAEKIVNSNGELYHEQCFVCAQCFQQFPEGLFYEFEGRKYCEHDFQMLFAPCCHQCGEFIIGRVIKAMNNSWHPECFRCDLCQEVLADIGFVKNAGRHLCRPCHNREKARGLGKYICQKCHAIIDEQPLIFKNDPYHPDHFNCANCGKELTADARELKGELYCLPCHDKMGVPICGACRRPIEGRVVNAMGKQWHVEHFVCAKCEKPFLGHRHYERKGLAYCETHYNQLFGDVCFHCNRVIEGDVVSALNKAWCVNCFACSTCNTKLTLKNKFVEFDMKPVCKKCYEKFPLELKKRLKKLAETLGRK
UniProt P29083: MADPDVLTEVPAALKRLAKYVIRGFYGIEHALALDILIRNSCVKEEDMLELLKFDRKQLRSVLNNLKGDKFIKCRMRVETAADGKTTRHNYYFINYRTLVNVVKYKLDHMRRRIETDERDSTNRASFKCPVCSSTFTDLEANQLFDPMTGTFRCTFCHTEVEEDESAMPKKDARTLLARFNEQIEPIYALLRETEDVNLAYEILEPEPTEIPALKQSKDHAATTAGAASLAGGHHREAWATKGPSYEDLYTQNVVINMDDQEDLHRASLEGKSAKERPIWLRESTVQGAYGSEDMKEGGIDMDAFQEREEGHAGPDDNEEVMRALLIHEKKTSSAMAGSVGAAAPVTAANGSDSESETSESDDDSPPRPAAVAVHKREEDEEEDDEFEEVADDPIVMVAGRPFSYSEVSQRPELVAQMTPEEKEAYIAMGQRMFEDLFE
UniProt P33316: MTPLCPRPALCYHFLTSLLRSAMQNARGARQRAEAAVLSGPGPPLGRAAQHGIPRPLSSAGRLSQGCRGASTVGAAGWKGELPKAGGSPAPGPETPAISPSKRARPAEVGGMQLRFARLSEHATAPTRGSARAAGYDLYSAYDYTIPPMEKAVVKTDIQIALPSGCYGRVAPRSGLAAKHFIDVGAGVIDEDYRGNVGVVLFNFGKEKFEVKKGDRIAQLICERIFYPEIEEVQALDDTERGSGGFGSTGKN
UniProt P40121: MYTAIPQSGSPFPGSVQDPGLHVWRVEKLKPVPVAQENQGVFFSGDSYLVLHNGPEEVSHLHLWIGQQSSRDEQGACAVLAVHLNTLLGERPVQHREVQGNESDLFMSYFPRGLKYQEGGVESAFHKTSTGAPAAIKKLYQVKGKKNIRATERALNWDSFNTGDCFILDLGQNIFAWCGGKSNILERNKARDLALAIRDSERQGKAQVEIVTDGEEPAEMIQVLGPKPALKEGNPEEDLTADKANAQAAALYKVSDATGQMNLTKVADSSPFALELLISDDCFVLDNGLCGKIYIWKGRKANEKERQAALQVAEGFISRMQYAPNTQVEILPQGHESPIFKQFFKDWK

Compound: Nc1nc2c(ncn2[C@@H]2O[C@H](COP(=O)(O)OP(=O)(O)OP(=O)(O)O)[C@@H](O)[C@H]2O)c(=O)[nH]1 [guanosine triphosphate]
Assay: NP40-soluble protein abundance relative to vehicle (solubility fold change) (ratio); higher = more soluble protein in presence of GTP
Procedure: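 Solubility proteome profiling in Jurkat crude lysate. Lysate was treated with Mg-GTP (0.1-10 mM) for 10 min at room temperature and 3 min at 37 °C, then solubilised with 0.8% NP40 and benzonase, followed by ultracentrifugation. Proteins were quantified by TMT10 LC-MS/MS; the value is the NP40-soluble abundance relative to the NP40-processed vehicle, from 3 independent experiments.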

| Target | NP40-soluble protein abundance (concentration: 0.1mM) | NP40-soluble protein abundance (concentration: 0.5mM) | NP40-soluble protein abundance (concentration: 1mM) | NP40-soluble protein abundance (concentration: 2mM) | NP40-soluble protein abundance (concentration: 4mM) | NP40-soluble protein abundance (concentration: 6mM) | NP40-soluble protein abundance (concentration: 8mM) | NP40-soluble protein abundance (concentration: 10mM) |
| --- | --- | --- | --- | --- | --- | --- | --- | --- |
| RPL29 (UniProt P47914) | 0.982 ± 0.1 | 0.997 ± 0.14 | 1.21 ± 0.15 | 1.09 ± 0.17 | 1.07 ± 0.22 | 0.991 ± 0.23 | 1.02 ± 0.33 | 1.12 ± 0.29 |
| UniProt P48059-5 | 1.04 ± 0.071 | 1.01 ± 0.077 | 0.969 ± 0.041 | 0.98 ± 0.092 | 0.985 ± 0.084 | 0.954 ± 0.072 | 0.97 ± 0.047 | 0.958 ± 0.066 |
| GTF2E1 (UniProt P29083) | 1.08 ± 0.028 | 1.1 ± 0.031 | 1.01 ± 0.026 | 1.05 ± 0.084 | 0.999 ± 0.051 | 1.01 ± 0.052 | 0.971 ± 0.046 | 0.963 ± 0.087 |
| UniProt P33316 and related entries | 0.922 ± 0.048 | 0.924 ± 0.068 | 0.911 ± 0.063 | 0.897 ± 0.059 | 0.867 ± 0.055 | 0.883 ± 0.047 | 0.877 ± 0.06 | 0.909 ± 0.062 |
| CAPG (UniProt P40121) | 0.925 ± 0.079 | 0.947 ± 0.089 | 0.929 ± 0.087 | 0.876 ± 0.1 | 0.843 ± 0.074 | 0.894 ± 0.1 | 0.893 ± 0.075 | 0.859 ± 0.094 |
